The source of these data is the supplement of paper PMC11732987, “Enantioselective OTUD7B fragment discovery through chemoproteomics screening and high-throughput optimisation” (Communications Chemistry, 2025).

This is one part of the list. The data scatter; read single values as rough.

Compound in the assay: ClCC(=O)N[C@H]1CCCc2ccccc12
As to the kind of experiment: log2 mean competition ratio of IA-DTB cysteine labelling (DMSO/compound) (log2 ratio); higher = stronger cysteine engagement by compound. To be noted: 200 µM; treatment time: 4 h; cell line lysate: HEK293T. The protocol: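 IA-DTB competitive cysteine chemoproteomics in HEK293T RIPA lysate. Lysates were treated with compound 29 or 30 at 50 or 200 µM for 4 h, then IA-DTB (500 µM, 1 h), trypsin-digested, NeutrAvidin-enriched and analysed by diaPASEF. Competition ratio = intensity DMSO / intensity compound (n=4 treated, n=64 DMSO); binding: mean log2 CR ≥ 1 and p ≤ 0.05 plus QC filters. Target is the cysteine site.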
For the target CPSF6 C476 (UniProt Q16630), the “log2 mean competition ratio” value was -0.0155.
On to CORO2A C335 (UniProt Q92828), for which the “log2 mean competition ratio” value is -0.203.
As to CNN3 C173 (UniProt Q15417), the “log2 mean competition ratio” value was -0.0112.
For the target CLASP2 C528 (UniProt O75122), the “log2 mean competition ratio” value was -0.0145.
The value for CHD9 C881 (UniProt Q3L8U1) was 0.384; that for CKAP5 C1203 (UniProt Q14008) was -0.124.
Turning to CKAP5 C1113 (UniProt Q14008), the “log2 mean competition ratio” value was -0.209.
The value for CNNM3 C376 (UniProt Q8NE01) was -0.106; that for CHD9 C1705 (UniProt Q3L8U1) was 0.0868.
For the target COG1 C584 (UniProt Q8WTW3), the “log2 mean competition ratio” value was -0.073.
As to COQ5 C170 (UniProt Q5HYK3), the “log2 mean competition ratio” value came out at 0.0685.
Turning to CLCN3 C783 (UniProt P51790), the “log2 mean competition ratio” value was -0.0169.
As to CKAP5 C619 (UniProt Q14008), the “log2 mean competition ratio” value was 0.234.
Regarding CISD2 C92 (UniProt Q8N5K1), the “log2 mean competition ratio” value is -0.117.
As to CPS1 C225 (UniProt P31327), the “log2 mean competition ratio” value was -0.0426.
COPG2 C44 (UniProt Q9UBF2): the “log2 mean competition ratio” value is -0.149.
Regarding CHEK1 C408 (UniProt O14757), the “log2 mean competition ratio” value is -0.00629.
For the target CLIC1 C24 (UniProt O00299), the “log2 mean competition ratio” value is -0.207.
For the target CKAP4 C100 (UniProt Q07065), the “log2 mean competition ratio” value amounted to 0.386.
Regarding CPNE7 C20 (UniProt Q9UBL6), the “log2 mean competition ratio” value was -0.14.
For COMMD4 C107 (UniProt Q9H0A8), the “log2 mean competition ratio” value was -0.194.
The same measure for CLTC C491 (UniProt Q00610): -0.402; for CHTF18 C542 (UniProt Q8WVB6): 0.00482.
As for COPB1 C390 (UniProt P53618), the “log2 mean competition ratio” value was -0.35.
For the target CORO1C C456 (UniProt Q9ULV4), the “log2 mean competition ratio” value is -0.505.
The same measure for CMTR1 C593 (UniProt Q8N1G2): -0.165.
Take CLTCL1 C491 (UniProt P53675): the “log2 mean competition ratio” value is -0.426.
For CPE C300, the “log2 mean competition ratio” value turned out to be 0.508.
For the target CORO7 C695 (UniProt P57737), the “log2 mean competition ratio” value was -0.00535.
In the case of CMC2 C37 (UniProt Q9NRP2), the “log2 mean competition ratio” value worked out at 0.146.
CLCC1 C279 (UniProt Q96S66): the “log2 mean competition ratio” value is 0.03.
For CPSF1 C1102 (UniProt Q10570), the “log2 mean competition ratio” value is -0.054.
CLCC1 C254 (UniProt Q96S66): the “log2 mean competition ratio” value was 0.161.
As for COMMD9 C160 (UniProt Q9P000), the “log2 mean competition ratio” value is -0.494.
With COQ7 C137 (UniProt Q99807), the “log2 mean competition ratio” value was -0.399.
With CHPF2 C42 (UniProt Q9P2E5), the “log2 mean competition ratio” value was determined as 0.466.
Turning to CPT1A C742 (UniProt P50416), the “log2 mean competition ratio” value is -0.129.
In the case of CMTR1 C9 (UniProt Q8N1G2), the “log2 mean competition ratio” value was -0.174.
